No constants are given. Whether binding was seen depends on the method and setting. Binding seen in cells or lysates may run through a third protein. Some binding calls cover weakened binding; strength is not graded here.
Biological target: T1, endogenous MIC60 (rat brain) (rat (endogenous in rat brain)) (UniProt Q3KR86)
T1 sequence: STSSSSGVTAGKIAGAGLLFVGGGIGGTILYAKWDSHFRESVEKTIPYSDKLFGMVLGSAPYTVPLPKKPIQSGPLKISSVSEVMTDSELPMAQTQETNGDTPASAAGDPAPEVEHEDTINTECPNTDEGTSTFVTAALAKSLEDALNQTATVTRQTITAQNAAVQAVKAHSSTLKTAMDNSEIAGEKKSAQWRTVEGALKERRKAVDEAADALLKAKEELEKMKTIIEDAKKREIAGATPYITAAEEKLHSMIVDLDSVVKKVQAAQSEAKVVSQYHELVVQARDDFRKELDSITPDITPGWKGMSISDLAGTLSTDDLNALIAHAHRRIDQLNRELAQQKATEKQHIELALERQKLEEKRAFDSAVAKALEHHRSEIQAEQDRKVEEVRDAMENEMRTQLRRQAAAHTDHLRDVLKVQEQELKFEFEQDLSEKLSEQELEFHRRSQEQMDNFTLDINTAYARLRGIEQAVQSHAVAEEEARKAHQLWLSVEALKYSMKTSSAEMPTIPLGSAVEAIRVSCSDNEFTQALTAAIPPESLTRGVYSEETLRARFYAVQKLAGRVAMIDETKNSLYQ
Assay: co-IP; endogenous proteins from rat brain lysate; pre-cleared, 2 h with the antibody to MIC60 at 4 °C, then overnight with Protein-G agarose beads; Western blot for PDE2A

B1: endogenous PDE2A (rat brain) (enzyme, UniProt Q01062 1-928)
chain: MVLVLHHILIAVVQFLRRGQQVFLKPDEPPPQPCADSLQDALLSLGAVIDIAGLRQAAKDALSAVLPKVETVYTYLVDGESRLVCEDPPHELPQEGKIREAVISRKRLSCDGLGPSDLLGKPLARLVAPLAPDTQVLVIPLLDKETGTVAAVILVHCGQLSDSEEQSLQVVEKHALVALQRVQALQQRRPEAVQNTSADPSEDQKDEKGYTAHDRKILQLCGELYDLDATSLQLKVLRYLQQETQATHCCLLLVSEDNLQLSCKVIGEKVLGEEVSFPLTMGRLGQVVEDKQCIQLKDLTSDDVQQLQNMLGCELRAMLCVPVISRATDQVVALACAFNKLGGDFFTDEDERAIQHCFHYTGTVLTSTLAFQKEQKLKCECQALLQVAKNLFTHLDDVSVLLQEIITEARNLSNAEICSVFLLDQNELVAKVFDGGVVDDESYEIRIPADQGIAGHVATTGQILNIPDAYAHPLFYRGVDDSTGFRTRNILCFPIKNENQEVIGVAELVNKINGPWFSKFDEDLATAFSIYCGISIAHSLLYKKVNEAQYRSHLANEMMMYHMKVSDDEYTKLLHDGIQPVAAIDSNFANFTYTPRSLPEDDTSMAILSMLQDMNFINNYKIDCPTLARFCLMVKKGYRDPPYHNWMHAFSVSHFCYLLYKNLELSNYLEDIEIFALFISCMCHDLDHRGTNNSFQVASKSVLAALYSSEGSVMERHHFAQAIAILNTHGCNIFDHFSRKDYQRMLDLMRDIILATDLAHHLRIFKDLQKMAEVGYDRNNKQHHRLLLCLLMTSCDLSDQTKGWKTTRKIAELIYKEFFSQGDLEKAMGNRPMEMMDREKAYIPELQISFMEHIAMPIYKLLQDLFPKAAELYERVASNREHWTKVSHKFTIRGLPSNNSLDFLDEEYEVPDLDVTRAPVNGCCSLEG
binding: binds

Source: paper PMC7578833
